Results from publication PMC8219041, “A transcriptional hub integrating gibberellin–brassinosteroid signals to promote seed germination in Arabidopsis”.
These are yes or no findings as the source states them, for the method shown. Binding seen in cells or lysates may run through a third protein. Some results given as binding are weak or reduced against the parent protein; the word gives no strength. Tags and fused reporters may be left off the sequences shown. Values belong to the binder of their own block, whether it stands above or below them.

How the values were obtained:
[1] = target: T1, HBI1–cYFP (HOMOLOG OF BEE2 … WITH IBH1 fused to the C-terminal half of YFP) (Arabidopsis thaliana) (UniProt Q9ZPW3); experiment: split reporter; BiFC: nYFP and cYFP fusions co-transformed into A. thaliana mesophyll protoplasts; YFP signal seen by confocal microscopy
T1 sequence: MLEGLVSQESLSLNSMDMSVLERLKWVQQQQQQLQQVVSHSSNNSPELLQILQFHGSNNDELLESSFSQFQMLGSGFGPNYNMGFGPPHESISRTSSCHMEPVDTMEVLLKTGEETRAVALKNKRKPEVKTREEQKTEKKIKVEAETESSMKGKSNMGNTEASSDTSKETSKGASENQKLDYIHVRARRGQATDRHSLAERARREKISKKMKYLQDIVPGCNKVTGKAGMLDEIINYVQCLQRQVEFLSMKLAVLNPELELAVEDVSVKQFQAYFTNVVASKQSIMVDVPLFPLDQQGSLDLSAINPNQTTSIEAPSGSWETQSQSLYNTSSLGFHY

[2] = target: T2, IBH1–cYFP (ILI1 BINDING bHLH PROTEIN1 fused to the C-terminal half of YFP) (Arabidopsis thaliana) (UniProt Q9SKX1); experiment: as above
T2 sequence: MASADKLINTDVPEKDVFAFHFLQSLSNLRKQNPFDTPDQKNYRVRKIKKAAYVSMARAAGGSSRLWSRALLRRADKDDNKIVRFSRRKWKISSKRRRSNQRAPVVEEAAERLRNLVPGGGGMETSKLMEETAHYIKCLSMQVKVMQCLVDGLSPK

binding [1]: binds
binding [2]: binds
B1: BEE2–nYFP (BRASSINOSTEROID ENHANCED EXPRESSION2 fused to the N-terminal half of YFP) (protein, UniProt Q93VJ4 1-304)
chain: MDLSVLDRLKWLQQQQMVSPEFLQILGSDGREELKRVESYLGNNNDELQSFRHFPEFGPDYDTTDGCISRTSSFHMEPVKNNGHSRAITLQNKRKPEGKTEKREKKKIKAEDETEPSMKGKSNMSNTETSSEIQKPDYIHVRARRGEATDRHSLAERARREKISKKMKCLQDIVPGCNKVTGKAGMLDEIINYVQSLQQQVEFLSMKLSVINPELECHIDDLSAKQFQAYFTGPPEGDSKQSIMADFRSFPLHQQGSLDYSVINSDHTTSLGAKDHTSSSWETHSQCLYNSLRTDSVSNFFSLK

binding [2]: binds
B2: HBI1–nYFP (HOMOLOG OF BEE2 … WITH IBH1 fused to the N-terminal half of YFP) (protein, UniProt Q9ZPW3 1-337)
chain: T1 sequence
